In this assay the target is HECT domain of ITCH (UniProt Q96J02). Nature of the assay: pull-down.

Sequences of proteins named here, by UniProt entry; tags and fusion partners are left off. Residues count along the entry.
UniProt Q96J02, 569-903: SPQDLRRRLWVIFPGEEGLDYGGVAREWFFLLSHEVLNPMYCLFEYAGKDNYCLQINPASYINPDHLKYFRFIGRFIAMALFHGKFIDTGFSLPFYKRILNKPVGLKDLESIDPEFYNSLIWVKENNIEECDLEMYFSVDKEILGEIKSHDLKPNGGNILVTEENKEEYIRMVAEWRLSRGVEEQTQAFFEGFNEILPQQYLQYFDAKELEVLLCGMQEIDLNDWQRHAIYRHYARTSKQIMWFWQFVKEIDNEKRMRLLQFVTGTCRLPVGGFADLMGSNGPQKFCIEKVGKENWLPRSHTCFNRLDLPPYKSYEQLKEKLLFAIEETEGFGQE

No constants are given. Whether binding was seen depends on the method and setting. In cells and extracts the contact can be indirect. Binding calls can cover weak binding; strength is not graded here.

Regarding “HA-tagged N-terminal domain (C2+PRR+WW1/2) of ITCH (from UniProt Q96J02) (domain or fragment)”, the binding result is on record as “binds”.
